# From publication PMC7819943, “Rice protein-binding microarrays: a tool to detect cis-acting elements near promoter regions in rice”
# The chains behind the UniProt entries cited, without tags or fusion partners.
# UniProt Q0JBA9, entry or part of it: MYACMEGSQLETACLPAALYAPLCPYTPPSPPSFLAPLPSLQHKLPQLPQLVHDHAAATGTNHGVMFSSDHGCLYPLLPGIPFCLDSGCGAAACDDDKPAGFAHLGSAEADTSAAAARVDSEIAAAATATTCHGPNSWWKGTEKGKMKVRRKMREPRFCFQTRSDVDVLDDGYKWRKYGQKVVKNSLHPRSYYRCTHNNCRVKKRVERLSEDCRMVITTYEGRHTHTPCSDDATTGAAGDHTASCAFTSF
# Some of the results follow.
# Biological target: OsWRKY34 (Oryza sativa, UniProt Q0JBA9 1-250)
# Assay: protein-binding microarray (RPBM); PBS, 2% BSA, 51.3 ng/ul salmon testes DNA, 50 uM zinc acetate, 200 nM TF, 25 C, 1 h; high values mean tight binding
# Details: protein: recombinant; tags: N-terminal polyhistidine and DsRed monomer fusion (pET32a); label: CyDye5-dUTP incorporated in the synthesized complementary strand; 3' TTTTT single-stranded linker to array surface; dsDNA, one strand shown
# Outline: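 A custom Agilent array was converted to double-stranded form by primer extension with Cy5-dUTP and blocked with 2% BSA. Protein at 200 nM in PBS with 2% BSA, salmon testes DNA and 50 µM zinc acetate was applied for 1 h at 25 °C, followed by washing. The proteins were polyhistidine–DsRed N-terminal fusions of transcription factors, expressed in E. coli BL21-CodonPlus and Ni–NTA-purified. The binding signal is per-feature fluorescence intensity (arbitrary units) from an Axon 4000B scanner.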
row,Sequence,binding signal
1,AAACTGCAACAACCGCCACGCCAGAGTCCACCGCACGCCACGGAGTCACCTAGTGCAG,8350 fluorescence intensity (a.u.)
2,CTAGACTGTGCCCTCTATTTCCACTCCGGCTGACGGCATTCGGAGTCACCTAGTGCAG,9600 fluorescence intensity (a.u.)
3,CTTTTTTTCATGTGATTTTTCGGCTTTTCTCACTTCTTAACGGAGTCACCTAGTGCAG,12900 fluorescence intensity (a.u.)
4,ATGCATACAACTTGCATTGTTTCTTTGATGTTCCATTTGGCGGAGTCACCTAGTGCAG,8120 fluorescence intensity (a.u.)
5,TGATCCGTGCCATCGTAACTATGCCTATTCAGATAAATGCCGGAGTCACCTAGTGCAG,9450 fluorescence intensity (a.u.)
6,TAACGCCGTTTACCTTTTAACAAACGTTTTACCTTTCGTTCGGAGTCACCTAGTGCAG,10400 fluorescence intensity (a.u.)
7,TCTCTTATGTATTGGGCTGTGTGGGTCAAGTACGCCTCGCCGGAGTCACCTAGTGCAG,8700 fluorescence intensity (a.u.)
8,AAAATAGTGCTTATCCGTGCTGTGCTTAACCGCGAAATTTCGGAGTCACCTAGTGCAG,9260 fluorescence intensity (a.u.)
9,CACCTTTTTTTAATTTTTTGGTTTCCAATTTTTATTTTTTCGGAGTCACCTAGTGCAG,10900 fluorescence intensity (a.u.)
10,CCCAACCGAACCAACTACGCGTCCGTCCGTCTCACGTGCACGGAGTCACCTAGTGCAG,9150 fluorescence intensity (a.u.)
11,ACTTTTTCCATCACATCAACCTGTCATACACAACTTTTCACGGAGTCACCTAGTGCAG,12100 fluorescence intensity (a.u.)
12,GCACAGTTCACATTCAGTTGCACCTCGAGCTCTATAAATGCGGAGTCACCTAGTGCAG,10500 fluorescence intensity (a.u.)
13,CGATCGTCTCCTCCTTGCCCTTCTTGCACCGCGCGCTATACGGAGTCACCTAGTGCAG,8360 fluorescence intensity (a.u.)
14,ATGCCTGATGGCCTCACACCGCCGCATCTTCTCGTTCTTCCGGAGTCACCTAGTGCAG,8280 fluorescence intensity (a.u.)
15,ATTCTCGTACACGAAAAGTCTTTTCAGCTGTCGCTTCATACGGAGTCACCTAGTGCAG,9330 fluorescence intensity (a.u.)
16,CCTCCGTCCCTAAATATTCGACGCCGTTGACTTTTTTAAACGGAGTCACCTAGTGCAG,21700 fluorescence intensity (a.u.)
17,GGGAGGAAAAAGGAAAAGTGGTTTAGGGTTTTGTGGATTTCGGAGTCACCTAGTGCAG,9820 fluorescence intensity (a.u.)
18,AGACCAATCCGCATCCGCTTTTCTCTACATTGTAACTCGCCGGAGTCACCTAGTGCAG,9770 fluorescence intensity (a.u.)
19,TGTGATTTTTCTGTTTCTGCTACATTATATTATAACCATTCGGAGTCACCTAGTGCAG,9400 fluorescence intensity (a.u.)
20,CTAACTTTTCCTTGTTTTCCACGTCTTTGGGAAGGGAGATCGGAGTCACCTAGTGCAG,9710 fluorescence intensity (a.u.)
21,AGCATTATCTCCTCATCATTCATCATCTCACTCAAATTCACGGAGTCACCTAGTGCAG,9830 fluorescence intensity (a.u.)
22,CGATGCAATATTGACCCATTTTTTCCCTGTTTCATTGACGCGGAGTCACCTAGTGCAG,10700 fluorescence intensity (a.u.)
23,CGCCGTTGTCTCCTTCCCGTCACACCCTCCTCGCCGCGACCGGAGTCACCTAGTGCAG,8500 fluorescence intensity (a.u.)
24,CAACTTTTCCATCACATCGTTCATATTTCAACCAAACTTCCGGAGTCACCTAGTGCAG,8810 fluorescence intensity (a.u.)
25,GTTTATATTTAATACTCTATATATATATGTCTAAGGCCTTCGGAGTCACCTAGTGCAG,8260 fluorescence intensity (a.u.)
26,CCTTCTTTACATACAAACAGAGCTCCATCTTTCTCTCTCTCGGAGTCACCTAGTGCAG,8280 fluorescence intensity (a.u.)
27,GGTTTTTTTTGGATTTATTGCTTTGTCACGTCTGGATCGTCGGAGTCACCTAGTGCAG,20500 fluorescence intensity (a.u.)

row,Sequence,binding signal
1,CGCCAGACGACCACTAAGCCCGCCTGCACGCTGCCATCGCCGGAGTCACCTAGTGCAG,8470 fluorescence intensity (a.u.)
2,AGGTGCAGGGTTGTTTTCTGGGTCCGACAACATAAGGGGCCGGAGTCACCTAGTGCAG,8310 fluorescence intensity (a.u.)
3,TTTGGACACCTATATGGGCGGGCGGGTGTATGTACAGTACCGGAGTCACCTAGTGCAG,14700 fluorescence intensity (a.u.)
4,CTATATTTTGGGATATTTTGGGATGGATATAGTATATAAGCGGAGTCACCTAGTGCAG,9200 fluorescence intensity (a.u.)
5,ATCACTAGATCGCGATTTCGCTCCTTTCTTCAGGTCCCTCCGGAGTCACCTAGTGCAG,9140 fluorescence intensity (a.u.)
6,CTGACGAGTTATTATTAACCCACCCACCCGGAAGCCACTGCGGAGTCACCTAGTGCAG,8070 fluorescence intensity (a.u.)
7,CGTTGTGTTGGTATGTGGTCTTCCTCCTCGTGTCTGTCGCCGGAGTCACCTAGTGCAG,9950 fluorescence intensity (a.u.)
8,CTCTCTGCTCAGCGTTGCGGGGCTTTGGATTTTTTTTTCTCGGAGTCACCTAGTGCAG,8140 fluorescence intensity (a.u.)
9,CGTGGGTGGAGGGATCGGCGCCGACGTGTGGTGCGCGCCTCGGAGTCACCTAGTGCAG,10200 fluorescence intensity (a.u.)
10,TTTATTTTGTCGACATCGTTTAACTTGGTGTTTTTTCCCCCGGAGTCACCTAGTGCAG,12000 fluorescence intensity (a.u.)
11,TTCGATCGATCCATGCAACAACATCCTGATTTGTTTTTCTCGGAGTCACCTAGTGCAG,8490 fluorescence intensity (a.u.)
12,CTCTCCCTCTCGCTTTCTACATCCATCCCGCACTGTAACACGGAGTCACCTAGTGCAG,8660 fluorescence intensity (a.u.)
13,GGGTGAAGTGTGGGCGGTCGGAGATCTCGATGCCGCTGGGCGGAGTCACCTAGTGCAG,8030 fluorescence intensity (a.u.)
14,TGACCAATCGCCAGTGCTCACACCCACTCTCCTAGCCTAGCGGAGTCACCTAGTGCAG,8140 fluorescence intensity (a.u.)
15,CGGGTCTTGCAATCCACTTCTTCTTCTTTTTTTTCTTTTTCGGAGTCACCTAGTGCAG,8630 fluorescence intensity (a.u.)
16,CAGCCAACGACCCAACTCCATCGTCCTCCTCGTCGTCCGCCGGAGTCACCTAGTGCAG,8510 fluorescence intensity (a.u.)
17,TCCCCGCTCTCGCCTCCTCCATCCCATCGCGCCACGCGAGCGGAGTCACCTAGTGCAG,9290 fluorescence intensity (a.u.)
18,GCAGTGTGAACACATCTAACTTCTATTGTACTGGACAAATCGGAGTCACCTAGTGCAG,8050 fluorescence intensity (a.u.)
19,CGCGGCTTATGTATTCTAGTGGATTTTGCTCCTAGCCTACCGGAGTCACCTAGTGCAG,10000 fluorescence intensity (a.u.)
20,ACTACGAAATCTATGGCAGTTTTCCCAATTTTTCACCCAACGGAGTCACCTAGTGCAG,8490 fluorescence intensity (a.u.)
21,AATTGGGAAAATTGGAACCGTGCCACTCCATCATGTTTTCCGGAGTCACCTAGTGCAG,8210 fluorescence intensity (a.u.)
22,CCTGCCGCCCTGTGTGATCCTACGAACCGACCGAATTAACCGGAGTCACCTAGTGCAG,10800 fluorescence intensity (a.u.)
23,TTAGTTTGTTTATCTTTTTTAAGAACTTATGTACTTTATTCGGAGTCACCTAGTGCAG,8520 fluorescence intensity (a.u.)
24,CTTCAGTTATGTTAATTACATGTCATTTGTTTTGTTACAACGGAGTCACCTAGTGCAG,8130 fluorescence intensity (a.u.)
25,GCGCTTATGTGTACTAGTTTGGTTGTGCATGCACACTAATCGGAGTCACCTAGTGCAG,9720 fluorescence intensity (a.u.)
26,TCGCCGCCCCTTATCCGGTCAGCGCACCGCTCGCAACAACCGGAGTCACCTAGTGCAG,8470 fluorescence intensity (a.u.)
27,ACGTCCGCAAAACCACCCATATATACTGCCATAGGACCCTCGGAGTCACCTAGTGCAG,8020 fluorescence intensity (a.u.)
